Measured values published in PubChem BioAssay AID256 (DTP/NCI, 2004).
The list shows only some results of the screen, not a fair sample: it is rich in T/C values a quarter to a half above the control, in often repeated tests (any T/C) and in doses without a T/C. Other doses and runs of a compound stand elsewhere. T/C gives the treated animals as a percentage of the vehicle group. Some entries give survivors of the animals treated and no T/C: the source files T/C as zero there, which appears to mark a toxic dose or a test without result, not a measured value. Some survivor counts are full or nearly so, which does not show that the dose was tolerated: the source hardly ever lists a survival T/C far under the control, and the zero likely stands for such cases as well. Counts of survivors are from the toxicity check (mostly the fifth day) where no day follows; animals may have died later. Schedules are NCI's codes, read here as Q, the interval in days (D) or hours (H), X, the number of doses. For survival time, the PubChem record calls one and a half times the control and up active, and a quarter to a half above the control has no call in these data; cut-offs in other NCI protocols can differ. Some T/C values are followed by the survivors on the day toxicity was checked, most often the fifth; where none is given, no animal had died by that day. Some entries hold several experiments; the values are given in rising order. Counts like (3×) say how often a value occurs here.

System: CD2F1 mice, L1210 leukemia ip, survival T/C
Test: NCI In Vivo Anticancer Drug Screen. Data for tumor model L1210 Leukemia (intraperitoneal) in CD2F1 (CDF1) mice
Details: higher T/C = longer survival
Outline: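 Mice carrying a transplanted tumor received test compound or vehicle alone. The value is the measurement in the treated group divided by that in the vehicle-treated control group.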

[1] = T/C endpoint: mean survival time, dose: 150.0 mg/kg/injection, schedule: Q01DX001 (ip), vehicle: saline
[2] = T/C endpoint: mean survival time, dose: 300.0 mg/kg/injection, schedule: Q01DX001 (ip), vehicle: saline
[3] = T/C endpoint: mean survival time, dose: 100.0 mg/kg/injection, schedule: Q04DX002 (ip), vehicle: saline with Tween-80
[4] = T/C endpoint: mean survival time, dose: 100.0 mg/kg/injection, schedule: Q01DX009 (ip), vehicle: distilled water + Tween-80
[5] = T/C endpoint: mean survival time, dose: 100.0 mg/kg/injection, schedule: Q01DX009 (ip), vehicle: saline with Tween-80
[6] = T/C endpoint: mean survival time, dose: 50.0 mg/kg/injection, schedule: Q04DX002 (ip), vehicle: saline with Tween-80

With `CCCCCCCCCC(=O)NCC[N+](C)(CC)CC` the survivor count (T/C endpoint: mean survival time, dose: 75.0 mg/kg/injection, schedule: Q01DX001 (ip), vehicle: saline) was 1 of 6, the survivor count (T/C endpoint: mean survival time, dose: 80.0 mg/kg/injection, schedule: Q01DX001 (ip), vehicle: saline) was 3 of 6 and the survivor count [1] was 0 of 6. The survivor count [2] was 0 of 6.
`O=C(CNC(=O)c1ccccc1)N/N=C/c1ccncc1` was tested, and the survivor count (T/C endpoint: mean survival time, dose: 200.0 mg/kg/injection, schedule: Q01DX009 (ip), vehicle: saline with Tween-80) was 4 of 6.
With `CC(=O)Oc1ccc2ncccc2c1Cc1c(OC(C)=O)ccc2ncccc12` the survivor count [1] was 6 of 6.
In the case of `CC(=O)CC(O)(C(F)(F)F)C(F)(F)F`, the survivor count (T/C endpoint: mean survival time, dose: 400.0 mg/kg/injection, schedule: Q04DX003 (ip), vehicle: saline with Tween-80) is reported as 1 of 6.
With `C1=[N+](c2ccccc2)CCN1c1ccccc1` the survivor count [2] was 0 of 6.
In the case of `NC(CSS(=O)(=O)O)=NC1CCCCC1`, the survivor count [3] is reported as 0 of 3, the survivor count (T/C endpoint: mean survival time, dose: 200.0 mg/kg/injection, schedule: Q04DX002 (ip), vehicle: saline with Tween-80) is reported as 0 of 3 and the survivor count (T/C endpoint: mean survival time, dose: 400.0 mg/kg/injection, schedule: Q04DX002 (ip), vehicle: saline with Tween-80) is reported as 0 of 3.
`N#CC(C#N)=C(C#N)c1ccccc1` was tested, and the survivor count (T/C endpoint: mean survival time, dose: 100.0 mg/kg/injection, schedule: Q01DX001 (ip), vehicle: saline with Tween-80) was 3 of 6 and the survivor count (T/C endpoint: mean survival time, dose: 200.0 mg/kg/injection, schedule: Q01DX001 (ip), vehicle: saline with Tween-80) was 2 of 6.
For `NC(Cc1ccc(N(CCCl)Cc2ccccc2)cc1)C(=O)O` (stereo unspecified), the T/C (T/C endpoint: mean survival time, dose: 3.12 mg/kg/injection, schedule: Q01DX009 (ip), vehicle: distilled water + Tween-80) was 142 % of control, the T/C (T/C endpoint: mean survival time, dose: 6.25 mg/kg/injection, schedule: Q01DX009 (ip), vehicle: distilled water + Tween-80) was 104 (2×), 105, 125 % of control and the T/C (T/C endpoint: mean survival time, dose: 12.5 mg/kg/injection, schedule: Q01DX009 (ip), vehicle: distilled water + Tween-80) was 111, 112 (2×), 113 % of control. For the same compound, the T/C (T/C endpoint: mean survival time, dose: 25.0 mg/kg/injection, schedule: Q01DX009 (ip), vehicle: distilled water + Tween-80) was 112 [5 of 6 alive], 115, 119, 123 % of control, the T/C (T/C endpoint: mean survival time, dose: 50.0 mg/kg/injection, schedule: Q01DX009 (ip), vehicle: distilled water + Tween-80) was 89 [5 of 6 alive], 113, 117, 131 % of control and the T/C [4] was 100 [5 of 6 alive], 103, 112 % of control [9 of 10 alive]. For the same compound, the survivor count [4] was 2 of 6.
In the case of `CN(C)N=Nc1c(F)c(F)cc(F)c1F`, the T/C [5] is reported as 134 % of control.
`NC(=O)c1[nH]nc(C2OC(CO)C(O)C2O)c1O` (stereo unspecified) was tested, and the T/C (T/C endpoint: median survival time, dose: 0.67 mg/kg/injection, schedule: Q01DX009 (ip), vehicle: saline) was 126 % of control, the T/C (T/C endpoint: median survival time, dose: 1.0 mg/kg/injection, schedule: Q01DX009 (ip), vehicle: saline) was 131 % of control and the T/C (T/C endpoint: median survival time, dose: 2.0 mg/kg/injection, schedule: Q01DX009 (ip), vehicle: saline) was 131 % of control. The T/C (T/C endpoint: median survival time, dose: 2.0 mg/kg/injection, schedule: Q04DX003 (ip), vehicle: saline, evaluated on day 5) was 103, 107, 110 % of control, the T/C (T/C endpoint: median survival time, dose: 2.0 mg/kg/injection, schedule: Q04DX003 (ip), vehicle: saline, evaluated on day 7) was 113 % of control and the T/C (T/C endpoint: median survival time, dose: 4.0 mg/kg/injection, schedule: Q04DX003 (ip), vehicle: saline, evaluated on day 5) was 106, 111, 114 % of control. The T/C (T/C endpoint: median survival time, dose: 4.0 mg/kg/injection, schedule: Q04DX003 (ip), vehicle: saline, evaluated on day 7) was 117 % of control, the T/C (T/C endpoint: median survival time, dose: 8.0 mg/kg/injection, schedule: Q04DX003 (ip), vehicle: saline) was 130 % of control and the T/C (T/C endpoint: median survival time, dose: 16.0 mg/kg/injection, schedule: Q04DX003 (ip), vehicle: saline) was 125 and 128 % of control. For the same compound, the T/C (T/C endpoint: median survival time, dose: 32.0 mg/kg/injection, schedule: Q04DX003 (ip), vehicle: saline) was 128 % of control.
`O=C(Nc1ccc(C2=NCCCN2)cc1)c1ccc(NC(=O)c2ccc(C3=NCCCN3)cc2)cc1` was tested, and the T/C (T/C endpoint: mean survival time, dose: 4.0 mg/kg/injection, schedule: Q01DX008 (iv), vehicle: water) was 133 % of control, the survivor count (T/C endpoint: mean survival time, dose: 6.0 mg/kg/injection, schedule: Q01DX008 (iv), vehicle: water) was 4 of 7 and the survivor count (T/C endpoint: mean survival time, dose: 12.0 mg/kg/injection, schedule: Q01DX008 (iv), vehicle: water) was 0 of 7.
With `CCOC(=O)c1cccc(N(CCOS(C)(=O)=O)CCOS(C)(=O)=O)c1` the survivor count (T/C endpoint: mean survival time, dose: 400.0 mg/kg/injection, schedule: Q01DX001 (ip), vehicle: saline) was 3 of 6.
With `N#CSCCN1C(=O)C2C3CCC(O3)C2C1=O` (stereo unspecified) the survivor count [6] was 0 of 3 and the survivor count [3] was 0 of 3.
For `C=[CH][Pb]([CH]=C)([O]C(=O)C(C)C)[O]C(=O)C(C)C`, the survivor count (T/C endpoint: mean survival time, dose: 20.0 mg/kg/injection, schedule: Q01DX009 (ip), vehicle: saline with Tween-80) was 2 of 6.
For `COc1cc(C[C@H]2c3cc(OC)c(OC)cc3CCN2C)c(Oc2cc3c(cc2OC)-c2c(OC)c(OC)cc4c2[C@H](C3)N(C)CC4)cc1OC`, the survivor count (T/C endpoint: mean survival time, dose: 200.0 mg/kg/injection, schedule: Q01DX001 (ip), vehicle: saline) was 10 of 10 and the survivor count (T/C endpoint: mean survival time, dose: 400.0 mg/kg/injection, schedule: Q04DX003 (ip), vehicle: saline) was 10 of 10.
`CCCCCCCCCCCCCCCCNS(=O)(=O)c1ccc2sc(SC)nc2c1` was tested, and the survivor count [6] was 3 of 3.
`O=c1[nH]c(=O)n(O)c2nc[nH]c12` was tested, and the survivor count [5] was 3 of 6.
For `O=S(=O)(O)c1cc2cc(S(=O)(=O)O)c(O)cc2cc1O.[NH-]C1CCCCC1[NH-].[Pt+2]`, the T/C (T/C endpoint: median survival time, dose: 25.0 mg/kg/injection, schedule: Q04DX003 (ip), vehicle: saline) was 125 and 131 % of control and the T/C (T/C endpoint: median survival time, dose: 50.0 mg/kg/injection, schedule: Q04DX003 (ip), vehicle: saline) was 147 % of control.
In the case of `CC(C)([NH-])C[NH-].[Cl][Pt+2][Cl]`, the survivor count (T/C endpoint: median survival time, dose: 320.0 mg/kg/injection, schedule: Q04DX003 (ip), vehicle: saline with Tween-80) is reported as 0 of 6.
In the case of `CCO/N=C(\N)c1ccccc1`, the survivor count (T/C endpoint: mean survival time, dose: 400.0 mg/kg/injection, schedule: Q01DX009 (ip), vehicle: saline with Tween-80) is reported as 3 of 6.
In the case of `Cc1cnc([Se])[nH]c1=O`, the survivor count (T/C endpoint: mean survival time, dose: 100.0 mg/kg/injection, schedule: Q01DX005 (ip), vehicle: water) is reported as 1 of 3, the survivor count (T/C endpoint: mean survival time, dose: 200.0 mg/kg/injection, schedule: Q01DX005 (ip), vehicle: water) is reported as 0 of 3 and the survivor count (T/C endpoint: mean survival time, dose: 400.0 mg/kg/injection, schedule: Q01DX005 (ip), vehicle: water) is reported as 0 of 3.
With `O=C(CC(=O)C(F)(F)F)c1cccs1.O=C(CC(=O)C(F)(F)F)c1cccs1.O=C(CC(=O)C(F)(F)F)c1cccs1.[Sm]` the survivor count (T/C endpoint: median survival time, dose: 400.0 mg/kg/injection, schedule: Q04DX002 (ip), vehicle: saline with Tween-80) was 1 of 3.
In the case of `Cc1ccc2c(c1)n([O-])c1cc(Cl)ccc1[n+]2=O`, the T/C (T/C endpoint: median survival time, dose: 25.0 mg/kg/injection, schedule: Q01DX009 (ip), vehicle: saline with Tween-80) is reported as 126 % of control and the T/C (T/C endpoint: median survival time, dose: 100.0 mg/kg/injection, schedule: Q01DX009 (ip), vehicle: saline with Tween-80) is reported as 126 % of control.
`NC(CCl)=NCC1C2CC3CC(C2)CC1C3` (stereo unspecified) was tested, and the survivor count (T/C endpoint: mean survival time, dose: 400.0 mg/kg/injection, schedule: Q01DX001 (ip), vehicle: Klucel (hydroxypropylcellulose) (HPC)) was 0 of 3.
`CCc1ccc(C(=O)N/N=C(\C)[C@]2(O)Cc3c(O)c4c(c(O)c3[C@@H](OC3CC(N)C(O)C(C)O3)C2)C(=O)c2c(OC)cccc2C4=O)cc1` (stereo partly specified) was tested, and the T/C (T/C endpoint: mean survival time, dose: 2.0 mg/kg/injection, schedule: Q01DX009 (ip), vehicle: water) was 126 % of control, the T/C (T/C endpoint: mean survival time, dose: 4.0 mg/kg/injection, schedule: Q01DX009 (ip), vehicle: water) was 133 % of control and the survivor count (T/C endpoint: mean survival time, dose: 16.0 mg/kg/injection, schedule: Q01DX009 (ip), vehicle: water) was 6 of 6.
